No constants are given. Whether binding was seen depends on the method and setting. For part of these data: In cells and extracts the contact can be indirect. Some results given as binding are weak or reduced against the parent protein; the word gives no strength.
Legend:
[1] = target: total secreted APP (t-sAPP) in CHO/APPwt conditioned media (human) (UniProt P05067); assay: CHO/APPwt cells treated 2 h; co-IP from conditioned media (6H3B5 or pN-APP), WB
[2] = target: human wild-type amyloid precursor protein (APPwt) expressed in CHO/APPwt cells (human) (UniProt P05067); assay: immunofluorescence co-localisation on fixed CHO/APPwt cells
[3] = target: human wild-type amyloid precursor protein (APPwt) expressed in CHO/APPwt cells (human) (UniProt P05067); assay: CHO/APPwt cells treated 2 h; co-IP from cell lysates (6H3B5 or pN-APP), WB
[4] = target: human wild-type amyloid precursor protein (APPwt) expressed in CHO/APPwt cells (human) (UniProt P05067); assay: co-immunoprecipitation with WB; immunofluorescence co-localisation
[5] = target: human wild-type amyloid precursor protein (APPwt) expressed in CHO/APPwt cells (human) (UniProt P05067); assay: summary of the co-IP and co-localisation experiments of Example 7
[6] = target: human recombinant sAPPβ (rsAPPβ, without Aβ domain) (human) (UniProt P05067); assay: in vitro incubation (100 nM each, 37 °C, 1 h), IP with 6H3B5, WB
[7] = target: CHO/APPwt cell conditioned medium-derived sAPPα (cmsAPPα) (human) (UniProt P05067); assay: as above
[8] = target: human recombinant sAPPα (rsAPPα) (human) (UniProt P05067); assay: as above

The chains behind the UniProt entries cited, without tags or fusion partners. Where a name states a change or a piece, a line headed by the entry shows the natural chain unless it says otherwise. Residues count along the entry.
UniProt P05067: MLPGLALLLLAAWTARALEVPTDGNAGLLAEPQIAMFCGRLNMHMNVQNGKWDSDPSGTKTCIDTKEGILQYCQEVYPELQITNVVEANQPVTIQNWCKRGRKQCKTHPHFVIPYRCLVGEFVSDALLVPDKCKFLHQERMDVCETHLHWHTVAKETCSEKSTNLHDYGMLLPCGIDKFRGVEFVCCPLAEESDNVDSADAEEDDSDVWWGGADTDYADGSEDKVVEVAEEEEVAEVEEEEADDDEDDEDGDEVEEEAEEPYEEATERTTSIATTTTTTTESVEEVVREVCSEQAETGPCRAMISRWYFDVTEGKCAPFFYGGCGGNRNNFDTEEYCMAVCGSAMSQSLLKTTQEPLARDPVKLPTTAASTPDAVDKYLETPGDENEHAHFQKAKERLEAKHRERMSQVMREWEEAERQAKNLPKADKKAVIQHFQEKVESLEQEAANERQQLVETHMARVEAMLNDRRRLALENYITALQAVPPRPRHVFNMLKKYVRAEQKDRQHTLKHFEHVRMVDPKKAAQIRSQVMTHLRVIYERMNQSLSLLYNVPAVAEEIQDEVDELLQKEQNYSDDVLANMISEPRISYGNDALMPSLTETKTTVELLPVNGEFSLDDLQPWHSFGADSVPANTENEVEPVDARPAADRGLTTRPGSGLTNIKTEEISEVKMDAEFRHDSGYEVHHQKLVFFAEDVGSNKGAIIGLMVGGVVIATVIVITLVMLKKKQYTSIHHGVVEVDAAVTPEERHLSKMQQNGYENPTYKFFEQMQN
human wild-type amyloid precursor protein (APPwt) expressed in CHO/APPwt cells: residues 18-770 of P05067
human recombinant sAPPα (rsAPPα): residues 18-687 of P05067
human recombinant sAPPβ (rsAPPβ, without Aβ domain): residues 18-671 of P05067

Measured: binding

B1: ApoE LDLR binding domain peptide (ApoEp, apoE residues 133-152) (peptide)
peptide: LRVRLASHLRKLRKRLLRDA
binds: [1] | [2] | [3] | [4] | [5]

B2: 6KApoEp (ApoE LDLR binding domain peptide with 6 N-terminal lysines) (peptide)
peptide: KKKKKKLRVRLASHLRKLRKRLLRDA
not listed: [5]
binds: all other assays above

Source: patent US20190185544A1, “COMPOSITIONS AND METHODS OF MODULATING ABETA PROTEIN” (University of South Florida, priority 2016, published 2019)
